{"source": "patent US20240300881A1", "about": "“PROCESS FOR PREPARATION OF LITHIUM L-THREONATE AND USE THEREOF” (XIXIOXOME BIOTHERAPEUTICS, priority 2023, published 2024)", "origin": "cited, not measured here", "test_system": "individuals with amnestic mild cognitive impairment", "conditions": "cited from earlier work", "note": "For at least one compound, name, drawing or mass did not settle the structure.", "data": [{"compound": "[Li]", "note": "[lithium]", "values": [{"measurement": "CSF concentrations of P-tau", "value": "significant decrease"}]}]}
